Laboratory results: PubChem BioAssay AID1259281 (Sanger Institute, 2017)

- Test: 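Screen kinases and frequently colorectal-mutated genes for lethal knock-downs and drug partners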 (primary screen)
- Cells: human COLO678 colorectal cancer cell line
- Reagent: siRNA pool against human genes
- Challenge: anchor drugs at fixed doses: BYL719 1 µM, cetuximab 5 µg/ml or trametinib 10 nM; DMSO vehicle for the siRNA-alone arm
- Detection: 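Cell viability compared with non-targeting pool wells, averaged over replicates; knock-down-alone effect also as robust z-score; synergy scores set knock-down plus drug against expected joint effect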
- Direction: robust z-score, siRNA alone: higher = more viable cells; strongly negative means essential
- Active means: 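Called essential (knock-down alone) if knock-down by itself drops cell number to a robust z-score under -3; all others no change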
- Calls: active = essential (knock-down alone); inactive = no change
Here is an unselected part of 794 reagents tested. Of all reagents, 22 (2.8%) were called active. 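Calls rest on knock-down alone only; drug synergy scores play no part in them.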 Not all columns of the deposit are shown. Not given: the amount of reagent, the time to read-out.

GRK2 | robust z-score, siRNA alone = 0.473; Call = inactive
AK7 | robust z-score, siRNA alone = 0.455; Call = inactive
STK38 | robust z-score, siRNA alone = -0.781; Call = inactive
AAK1 | robust z-score, siRNA alone = -3.37; Call = active
IP6K1 | robust z-score, siRNA alone = 0.473; Call = inactive
ELF3 | robust z-score, siRNA alone = -0.643; Call = inactive
TEX14 | robust z-score, siRNA alone = 0.473; Call = inactive
MAPKAPK3 | robust z-score, siRNA alone = 0.473; Call = inactive
NUP107 | robust z-score, siRNA alone = -1.34; Call = inactive
FXR1 | robust z-score, siRNA alone = -0.285; Call = inactive
ADPGK | robust z-score, siRNA alone = 0.352; Call = inactive
NTRK3 | robust z-score, siRNA alone = 0.473; Call = inactive
CAMK1D | robust z-score, siRNA alone = 0.473; Call = inactive
STK32A | robust z-score, siRNA alone = 0.473; Call = inactive
SGK3 | robust z-score, siRNA alone = 0.473; Call = inactive
MAP2K7 | robust z-score, siRNA alone = 0.473; Call = inactive
GTF2H1 | robust z-score, siRNA alone = -3.22; Call = active
PANK2 | robust z-score, siRNA alone = 0.473; Call = inactive
CKS2 | robust z-score, siRNA alone = 0.473; Call = inactive

A portion taken from the entries so far:
MAPKAPK3 | robust z-score, siRNA alone = 0.473; Call = inactive
NUP107 | robust z-score, siRNA alone = -1.34; Call = inactive
